About 4,300 (3.1%) of roughly 140,000 compounds were called active. Inconclusive means that the source gave no clear call. Such entries were picked first, then a sample of the others.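 The calls were made as follows: active = readout at or below -70, meaning at least 70% loss of cells showing the perinucleolar compartment, a nuclear body marking cancer cells; inconclusive = readout between -30 and a set limit; inactive = the rest.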
Assay: High Content Assay for Compounds that inhibit the Assembly of the Perinucleolar Compartment;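 also: plate controls were DMSO wells for no effect and camptothecin positive control wells for full effect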
Conditions: PC3M PTB-GFP, PNC prevalence imaging, 16 h; at 10 µM; active compounds read low
Outline: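 Read-out is percentage of cells bearing a perinucleolar compartment, from automated 20x imaging of fixed, Hoechst-stained PC3M PTB-GFP cells. Cells were seeded 4 h, then exposed 16 h to compound (23 nl of library stock) in duplicate plates.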

Question: With COc1cc(OC)c(NC(=O)CC(C)=O)cc1Cl as the compound, how does the activity change (PNC), negative = inhibition read?
Answer: inconclusive: -35.9%

Question: Which activity change (PNC), negative = inhibition does the source give for O=C(N/N=C/C(Br)=C/c1ccccc1)c1n[nH]c2c1CCC2 here?
Answer: inconclusive: -79.1%

Question: With CC(Sc1nnc(Nc2ccccc2)s1)C(=O)NC1CCCc2ccccc21 (stereo unspecified) as the compound, how does the activity change (PNC), negative = inhibition read?
Answer: inconclusive: -35.2%

Question: Which activity change (PNC), negative = inhibition does the source give for CCN(C(=O)C1CCN(S(=O)(=O)c2cccc3nonc23)CC1)c1ccccc1 here?
Answer: inconclusive: -35.5%

Question: Which activity change (PNC), negative = inhibition does the source give for COc1ccccc1-n1c(C)nnc1SCC(=O)Nc1cccc(C(C)=O)c1 here?
Answer: inconclusive: -70.5%

Question: With O=C(NCCN1CCOCC1)c1cc(-c2ccccc2)on1 as the compound, how does the activity change (PNC), negative = inhibition read?
Answer: inconclusive: -33.6%

Question: With Cc1ccc(NC(=O)CSC2=C(C#N)C(c3ccc4c(c3)OCO4)CC(=O)N2)cc1C (stereo unspecified) as the compound, how does the activity change (PNC), negative = inhibition read?
Answer: active: -100%

Question: For CCOC(=O)c1c(Nc2nc(C)c(C(=O)NC)s2)sc(C)c1C, which activity change (PNC), negative = inhibition is on record?
Answer: active: -81.8%

Question: With Cc1ccc(-c2n[nH]c(=O)c3ccccc23)cc1S(=O)(=O)NCCN1CCOCC1 as the compound, how does the activity change (PNC), negative = inhibition read?
Answer: inactive: -24%

Question: For N#CCSCC(=O)Nc1ccccc1, which activity change (PNC), negative = inhibition is on record?
Answer: inconclusive: -31.9%

Question: Which activity change (PNC), negative = inhibition does the source give for O=C(O)CCCC(=O)N1CCN(C(c2ccccc2)c2ccccc2)CC1 here?
Answer: inconclusive: -59.9%

Question: Which activity change (PNC), negative = inhibition does the source give for CCOCCCNS(=O)(=O)c1cc(Br)cc2c1N(C(=O)C1CC1)CC2 here?
Answer: inactive: -3.59%

Question: Which activity change (PNC), negative = inhibition does the source give for CCOc1ccc(OCCCN(C)C)cc1 here?
Answer: inconclusive: -32.6%

Question: With Cc1cccc(NC(=O)c2cc(NC(=O)C3CC=CCC3C(=O)O)ccc2N2CCOCC2)c1 (stereo unspecified) as the compound, how does the activity change (PNC), negative = inhibition read?
Answer: inconclusive: -56.4%

Question: For Cc1ccccc1S(=O)(=O)Nc1nc2ccccc2nc1N1CCc2ccccc2C1, which activity change (PNC), negative = inhibition is on record?
Answer: inactive: 5.83%

Question: For CCCCOC(=O)C1C2C=C[C@]3(CN(C(C)c4ccc(OC)cc4)C(=O)[C@H]13)O2 (stereo partly specified), which activity change (PNC), negative = inhibition is on record?
Answer: inconclusive: -41.3%

Question: For CN(C)c1cccc(N=C2C=C(N3CCOCC3)CC(C)(C)C2)c1, which activity change (PNC), negative = inhibition is on record?
Answer: inconclusive: -40%

Question: For Cc1cc(C)nc(NS(=O)(=O)c2ccc(NC(=O)CSc3nc4ccccc4[nH]3)cc2)n1, which activity change (PNC), negative = inhibition is on record?
Answer: inactive: -0.272%

Question: With CC(=O)N1CCN(C(=O)CCc2c[nH]c3ccccc23)CC1 as the compound, how does the activity change (PNC), negative = inhibition read?
Answer: inconclusive: -68.6%

Question: For COc1ccc(C(=O)/C=C/c2ccc(F)cc2)c(OC(=O)c2ccc([N+](=O)[O-])cc2)c1, which activity change (PNC), negative = inhibition is on record?
Answer: inactive: -24.2%

Question: Which activity change (PNC), negative = inhibition does the source give for COc1ccc(CCn2c(=O)[nH]c3cc(C(=O)NCCc4ccccc4)ccc3c2=O)cc1OC here?
Answer: inconclusive: -32.1%

Question: Which activity change (PNC), negative = inhibition does the source give for N=c1nc(N2CCCCC2)cc(N)n1O here?
Answer: active: -115%

Question: Which activity change (PNC), negative = inhibition does the source give for CCOc1cccc2cc(C(=O)N3CCN(C/C=C/c4ccccc4)CC3)c(=O)oc12 here?
Answer: inactive: 66.6%

Question: With Cc1ccc(OCC(=O)NNC(=O)c2cc3ccccc3o2)cc1 as the compound, how does the activity change (PNC), negative = inhibition read?
Answer: inconclusive: -56.3%

Question: Which activity change (PNC), negative = inhibition does the source give for CC(=O)NCCn1c(SCC(=O)c2ccccc2)nc2ccccc2c1=O here?
Answer: inconclusive: -49.3%

Question: With COc1cc(CC(=O)N/N=C/c2ccc([N+](=O)[O-])cc2)c([N+](=O)[O-])cc1OC as the compound, how does the activity change (PNC), negative = inhibition read?
Answer: inconclusive: -60.7%

Question: Which activity change (PNC), negative = inhibition does the source give for FC(F)(F)c1cnc(NNC(=S)Nc2ccc(Cl)cc2)c(Cl)c1 here?
Answer: inconclusive: -34.1%

Question: For Cc1ccc2cc(C(c3nnnn3CC3CCCO3)N3CCc4ccccc4C3)c(=O)[nH]c2c1 (stereo unspecified), which activity change (PNC), negative = inhibition is on record?
Answer: inactive: 22.8%

Question: For CCC(C(=O)NCc1ccco1)n1nc(-c2ccc(OC)cc2)ccc1=O (stereo unspecified), which activity change (PNC), negative = inhibition is on record?
Answer: inconclusive: -66.6%

Question: With Cc1ccc(/C=C/C(=O)N2CCCC(C)C2)cc1 (stereo unspecified) as the compound, how does the activity change (PNC), negative = inhibition read?
Answer: inactive: -19.8%

Question: With O=C(c1ccc(=O)oc1)N1CCN(C(c2ccccc2)c2ccccc2)CC1 as the compound, how does the activity change (PNC), negative = inhibition read?
Answer: inconclusive: -30.6%

Question: For CC1=C(C#N)C(NC(=O)C2CCCCC2)(C(F)(F)F)C(=O)N1 (stereo unspecified), which activity change (PNC), negative = inhibition is on record?
Answer: inactive: 24.9%

Question: Which activity change (PNC), negative = inhibition does the source give for Cc1ccc(NC(=O)COC(=O)C(NS(=O)(=O)c2ccc(Cl)cc2)C(C)O)c(Br)c1 (stereo unspecified) here?
Answer: inconclusive: -54.8%

Question: With O=C(NC1CCCCC1)C1CCN(S(=O)(=O)N2CCCCCC2)CC1 as the compound, how does the activity change (PNC), negative = inhibition read?
Answer: inconclusive: -33.8%

Question: With O=c1[nH]c2ccccc2n1CCCSc1cnc2ccccc2n1 as the compound, how does the activity change (PNC), negative = inhibition read?
Answer: inactive: -9.48%

Question: For CCN1C(=O)c2cccc3c(N)ccc1c23, which activity change (PNC), negative = inhibition is on record?
Answer: inconclusive: -62.3%

Question: Which activity change (PNC), negative = inhibition does the source give for COc1ccc(CNC(=O)CN(CC2CCCO2)C(=O)CNS(=O)(=O)c2ccc(C)cc2)cc1 (stereo unspecified) here?
Answer: inconclusive: -32.5%

Question: With N#Cc1c(-c2ccccc2)nc(-c2ccccc2)[nH]c1=O as the compound, how does the activity change (PNC), negative = inhibition read?
Answer: inconclusive: -43.9%

Question: Which activity change (PNC), negative = inhibition does the source give for O=C(CCCn1c(=O)[nH]c2ccsc2c1=O)N1CCCCC1 here?
Answer: inconclusive: -64.2%

Question: For CCc1ccc(OCC(=O)N(C)CCC#N)c(Br)c1, which activity change (PNC), negative = inhibition is on record?
Answer: active: -91.2%

Question: For CCCCC(=O)Nc1ccc(NC(=S)NC(=O)CC)cc1OC, which activity change (PNC), negative = inhibition is on record?
Answer: inconclusive: -71.7%

Question: With COC(=O)Oc1ccc(/C=N/NC(=O)CSCc2ccccc2Br)cc1OC as the compound, how does the activity change (PNC), negative = inhibition read?
Answer: inconclusive: -34.9%

Question: With Cc1ccc(C(=O)CCC(=O)Nc2ccc(Cl)c(S(=O)(=O)Nc3cccc(Cl)c3)c2)cc1 as the compound, how does the activity change (PNC), negative = inhibition read?
Answer: inconclusive: -31.3%

Question: For CC(C)(C)c1ccc(S(=O)(=O)N2CCN(CCC#N)CC2)cc1, which activity change (PNC), negative = inhibition is on record?
Answer: inactive: -23.4%

Question: For Cc1cc(N/N=C/c2ccc(Cl)cc2)nc(NCc2ccccc2)n1, which activity change (PNC), negative = inhibition is on record?
Answer: inactive: 4.8%

Question: Which activity change (PNC), negative = inhibition does the source give for O=C1CCCN1Cc1ncnn1-c1ccccc1 here?
Answer: active: -100%

Question: Which activity change (PNC), negative = inhibition does the source give for CCOC(=O)C(Cc1ccc(NC(=O)/C(=C/c2ccc(OC(C)=O)cc2)NC(C)=O)cc1)N1C(=O)c2ccccc2C1=O (stereo unspecified) here?
Answer: inconclusive: -78%

Question: For CCc1ccc(CNc2ccc(N3CCN(C(C)=O)CC3)cc2)cc1, which activity change (PNC), negative = inhibition is on record?
Answer: inconclusive: -32%

Question: With O=C(O)C1C2C=CC(C2)C1C(=O)NC(c1ccccc1)c1ccccc1 (stereo unspecified) as the compound, how does the activity change (PNC), negative = inhibition read?
Answer: inconclusive: -41.6%

Question: With Cc1cc(C(=O)NNC(=S)NCc2ccco2)n(C)n1 as the compound, how does the activity change (PNC), negative = inhibition read?
Answer: inconclusive: -49%

Question: For Nc1c(-c2ccccc2)cnn1-c1cccc(C(F)(F)F)c1, which activity change (PNC), negative = inhibition is on record?
Answer: inconclusive: -73.2%

Question: With CCCN(CCC)S(=O)(=O)c1ccc(C(=O)Nc2nc(-c3ccccc3)c(C(=O)OCC)s2)cc1 as the compound, how does the activity change (PNC), negative = inhibition read?
Answer: inactive: -28.4%

Question: Which activity change (PNC), negative = inhibition does the source give for CC(C)Cc1nc2oc3c(N4CCN(C)CC4)ncnc3c2c2c1CCCC2 here?
Answer: inconclusive: -55.7%

Question: For COC(=O)c1cc(-c2ccccc2)n[nH]1, which activity change (PNC), negative = inhibition is on record?
Answer: inconclusive: -51.9%

Question: With COc1ccc(C)cc1S(=O)(=O)N(C)CC(=O)Nc1ccc2c(c1)OCCO2 as the compound, how does the activity change (PNC), negative = inhibition read?
Answer: inconclusive: -78.9%

Question: With Cc1ccc(CNC(=O)COC(=O)Cc2ccc(-c3ccccc3)cc2)cc1 as the compound, how does the activity change (PNC), negative = inhibition read?
Answer: inconclusive: -35.6%
